In patent publication US20120219559A1 (Johns Hopkins, published 2012):
These are yes or no findings as the source states them, for the method shown. Some results given as binding are weak or reduced against the parent protein; the word gives no strength.

Target: T1, ICOS (Mus musculus, UniProt Q9WVS0)
T1 sequence (membrane protein, looked up): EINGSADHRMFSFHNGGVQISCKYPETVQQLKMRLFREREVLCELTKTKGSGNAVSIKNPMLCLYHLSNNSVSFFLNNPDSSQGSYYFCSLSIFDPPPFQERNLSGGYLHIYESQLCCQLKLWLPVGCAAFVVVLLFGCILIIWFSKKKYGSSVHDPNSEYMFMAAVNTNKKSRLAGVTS
Experiment: CDS well image, 293T cells transfected with the mouse gene, stained with the mouse fusion protein

B1: B7-H2Ig (Fc fusion, Mus musculus, UniProt Q9JHJ8 47-279, looked up)
fusion protein: ETEVGAMVGSNVVLSCIDPHRRHFNLSGLYVYWQIENPEVSVTYYLPYKSPGINVDSSYKNRGHLSLDSMKQGNFSLYLKNVTPQDTQEFTCRVFMNTATELVKILEEVVRLRVAANFSTPVISTSDSSNPGQERTYTCMSKNGYPEPNLYWINTTDNSLIDTALQNNTVYLNKLGLYDVISTLRLPWTSRGDVLCCVENVALHQNITSISQAESFTGNNTKNPQETHNNELK
notes: Ig fusion protein purchased from R&D systems; also called mouse B7-H2Ig fusion protein
With B1 the binding was “binds”.
